{
  "sequences": {"note": "Protein sequences, listed by entry. Tags and fused reporters are not part of them. Lines headed by an entry give the natural chain unless they say otherwise; changes in a name come on top. Residues count along the entry.", "UniProt P25054, residues 2681-2843": "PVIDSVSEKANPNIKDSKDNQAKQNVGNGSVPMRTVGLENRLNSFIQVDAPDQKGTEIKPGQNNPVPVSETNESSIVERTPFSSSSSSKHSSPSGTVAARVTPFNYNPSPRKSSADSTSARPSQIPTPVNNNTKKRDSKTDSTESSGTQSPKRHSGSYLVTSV", "UniProt P63208": "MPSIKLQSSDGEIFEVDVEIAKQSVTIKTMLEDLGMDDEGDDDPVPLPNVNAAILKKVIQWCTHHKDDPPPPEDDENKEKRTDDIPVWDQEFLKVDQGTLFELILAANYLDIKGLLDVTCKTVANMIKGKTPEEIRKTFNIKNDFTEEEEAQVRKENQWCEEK", "UniProt Q9Y3I1": "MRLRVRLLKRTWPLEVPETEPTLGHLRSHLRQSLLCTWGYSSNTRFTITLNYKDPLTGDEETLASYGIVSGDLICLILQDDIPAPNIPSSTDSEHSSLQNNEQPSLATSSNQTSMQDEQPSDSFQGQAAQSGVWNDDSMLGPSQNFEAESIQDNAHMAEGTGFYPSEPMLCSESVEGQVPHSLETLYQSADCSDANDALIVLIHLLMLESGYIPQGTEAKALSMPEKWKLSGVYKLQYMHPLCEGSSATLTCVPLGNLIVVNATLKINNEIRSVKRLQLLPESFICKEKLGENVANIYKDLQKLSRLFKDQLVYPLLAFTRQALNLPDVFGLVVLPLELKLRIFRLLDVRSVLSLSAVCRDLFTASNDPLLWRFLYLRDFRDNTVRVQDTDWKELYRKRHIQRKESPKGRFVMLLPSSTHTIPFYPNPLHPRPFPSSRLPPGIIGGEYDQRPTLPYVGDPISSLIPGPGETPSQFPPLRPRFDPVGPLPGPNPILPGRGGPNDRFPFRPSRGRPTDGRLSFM"},
  "source": "patent US20070042463A1",
  "key": {"SIP-L (human) [1]": {"molecular_target": "SIP-L (human) (UniProt Q9HB71)", "assay": "yeast two-hybrid; LexA-Siah-1 with B42-SIP-L; β-galactosidase filter assay"}, "APC (2681-2843) (human) [2]": {"molecular_target": "APC (2681-2843) (human) (UniProt P25054)", "assay": "yeast two-hybrid; LexA-Siah-1 with B42-APC(2681-2843); β-galactosidase filter assay"}, "SIP-L (human) [3]": {"molecular_target": "SIP-L (human) (UniProt Q9HB71)", "assay": "yeast two-hybrid; LexA-Siah-1 with B42-SIP-L; growth on leucine-deficient media (Leu+)"}, "[4]": {"substrate": "T1, SIP-S (human)", "T1 sequence": "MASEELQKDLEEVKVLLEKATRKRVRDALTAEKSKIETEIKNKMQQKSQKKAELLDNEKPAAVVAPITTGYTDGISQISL", "assay": "yeast two-hybrid; LexA-Siah-1 with B42-SIP-S; β-galactosidase filter assay"}, "APC (2681-2843) (human) [5]": {"molecular_target": "APC (2681-2843) (human) (UniProt P25054)", "assay": "yeast two-hybrid; LexA-Siah-1 with B42-APC(2681-2843); growth on leucine-deficient media (Leu+)"}, "[6]": {"substrate": "T1, ", "assay": "yeast two-hybrid; LexA-Siah-1 with B42-SIP-S; growth on leucine-deficient media (Leu+)"}, "Siah-1 (human) [7]": {"molecular_target": "T2, Siah-1 (human) (UniProt Q8IUQ4)", "T2 sequence": "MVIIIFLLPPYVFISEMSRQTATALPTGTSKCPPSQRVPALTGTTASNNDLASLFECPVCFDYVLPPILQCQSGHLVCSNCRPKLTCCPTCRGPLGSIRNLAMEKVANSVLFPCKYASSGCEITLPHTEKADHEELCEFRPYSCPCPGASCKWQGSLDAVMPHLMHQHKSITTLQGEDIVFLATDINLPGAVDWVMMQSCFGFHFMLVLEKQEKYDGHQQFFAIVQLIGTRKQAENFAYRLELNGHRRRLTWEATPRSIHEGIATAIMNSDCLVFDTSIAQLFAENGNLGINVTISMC", "assay": "GST pull-down with 35S-labeled in vitro translated Siah-1 (FIG. 5A); the immobilised Siah-1 fusion is not described"}, "Siah-1 (human) [8]": {"molecular_target": "T2, Siah-1 (human)", "assay": "yeast two-hybrid"}, "SAD (human)": {"molecular_target": "T3, SAD (human) (UniProt Q9UKT4)", "T3 sequence": "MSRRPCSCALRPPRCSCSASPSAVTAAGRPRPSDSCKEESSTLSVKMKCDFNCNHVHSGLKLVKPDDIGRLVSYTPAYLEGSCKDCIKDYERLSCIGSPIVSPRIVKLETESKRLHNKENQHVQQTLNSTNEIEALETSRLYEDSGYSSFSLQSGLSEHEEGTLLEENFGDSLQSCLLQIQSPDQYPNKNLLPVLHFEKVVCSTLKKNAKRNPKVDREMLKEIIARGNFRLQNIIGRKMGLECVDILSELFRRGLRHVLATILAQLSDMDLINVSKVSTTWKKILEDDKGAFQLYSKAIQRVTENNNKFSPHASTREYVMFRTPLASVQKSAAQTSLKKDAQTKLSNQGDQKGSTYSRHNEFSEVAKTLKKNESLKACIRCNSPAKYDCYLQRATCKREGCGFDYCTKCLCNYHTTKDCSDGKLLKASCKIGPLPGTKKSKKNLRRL", "assay": "yeast two-hybrid; B42-SAF-1α fragments with LexA-SAD (FIG. 6A)"}, "SIP-L (human) [9]": {"molecular_target": "SIP-L (human) (UniProt Q9HB71)", "assay": "yeast two-hybrid; B42-SAF-1α fragments with LexA-SIP-L (FIG. 6A)"}, "Skp1 (human)": {"molecular_target": "Skp1 (human) (UniProt P63208)", "assay": "yeast two-hybrid; B42-SAD and fragments with LexA-SKP1 (FIG. 6B)"}, "SAF-1 (human)": {"molecular_target": "T4, SAF-1 (human) (UniProt Q9Y3I1)", "T4 sequence": "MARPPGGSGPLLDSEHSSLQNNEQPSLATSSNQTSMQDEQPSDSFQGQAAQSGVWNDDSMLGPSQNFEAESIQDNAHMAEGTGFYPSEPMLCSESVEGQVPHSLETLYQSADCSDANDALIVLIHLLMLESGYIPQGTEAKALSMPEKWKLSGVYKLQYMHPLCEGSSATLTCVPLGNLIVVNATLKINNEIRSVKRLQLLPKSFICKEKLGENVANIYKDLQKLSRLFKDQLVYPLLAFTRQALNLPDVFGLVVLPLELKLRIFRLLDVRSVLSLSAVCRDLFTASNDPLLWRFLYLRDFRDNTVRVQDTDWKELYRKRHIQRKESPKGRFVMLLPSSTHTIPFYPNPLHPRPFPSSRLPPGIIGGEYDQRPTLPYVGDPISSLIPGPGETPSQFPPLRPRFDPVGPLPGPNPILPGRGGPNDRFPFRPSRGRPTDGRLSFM", "assay": "yeast two-hybrid; B42-SAD and fragments with LexA-SAF-1 (FIG. 6B)"}, "Siah-1 (human) [10]": {"molecular_target": "T2, Siah-1 (human)", "assay": "yeast two-hybrid library screen; LexA-Siah-1 (22-298) bait, human embryonic brain cDNA clones encoding portions of Siah-1"}},
  "note": "These are yes or no findings as the source states them, for the method shown. For some of these results: In cells and extracts the contact can be indirect. Some results given as binding are weak or reduced against the parent protein; the word gives no strength.",
  "data": [
    {"binder": "Siah-1 (protein) MVIIIFLLPPYVFISEMSRQTATALPTGTSKCPPSQRVPALTGTTASNNDLASLFECPVCFDYVLPPILQCQSGHLVCSNCRPKLTCCPTCRGPLGSIRNLAMEKVANSVLFPCKYASSGCEITLPHTEKADHEELCEFRPYSCPCPGASCKWQGSLDAVMPHLMHQHKSITTLQGEDIVFLATDINLPGAVDWVMMQSCFGFHFMLVLEKQEKYDGHQQFFAIVQLIGTRKQAENFAYRLELNGHRRRLTWEATPRSIHEGIATAIMNSDCLVFDTSIAQLFAENGNLGINVTISMC", "values": [
      {"measurement": "binding", "setting": "SIP-L (human) [1]", "result": "binds"},
      {"measurement": "binding", "setting": "APC (2681-2843) (human) [2]", "result": "binds"},
      {"measurement": "binding", "setting": "SIP-L (human) [3]", "result": "binds"},
      {"measurement": "binding", "setting": "[4]", "result": "binds"},
      {"measurement": "binding", "setting": "APC (2681-2843) (human) [5]", "result": "binds"},
      {"measurement": "binding", "setting": "[6]", "result": "binds"},
      {"measurement": "binding", "setting": "Siah-1 (human) [7]", "result": "binds"}
    ]},
    {"binder": "SIP-S (protein) MASEELQKDLEEVKVLLEKATRKRVRDALTAEKSKIETEIKNKMQQKSQKKAELLDNEKPAAVVAPITTGYTDGISQISL", "values": [
      {"measurement": "binding", "setting": "Siah-1 (human) [8]", "result": "binds"}
    ]},
    {"binder": "SAF-1 (protein) MARPPGGSGPLLDSEHSSLQNNEQPSLATSSNQTSMQDEQPSDSFQGQAAQSGVWNDDSMLGPSQNFEAESIQDNAHMAEGTGFYPSEPMLCSESVEGQVPHSLETLYQSADCSDANDALIVLIHLLMLESGYIPQGTEAKALSMPEKWKLSGVYKLQYMHPLCEGSSATLTCVPLGNLIVVNATLKINNEIRSVKRLQLLPKSFICKEKLGENVANIYKDLQKLSRLFKDQLVYPLLAFTRQALNLPDVFGLVVLPLELKLRIFRLLDVRSVLSLSAVCRDLFTASNDPLLWRFLYLRDFRDNTVRVQDTDWKELYRKRHIQRKESPKGRFVMLLPSSTHTIPFYPNPLHPRPFPSSRLPPGIIGGEYDQRPTLPYVGDPISSLIPGPGETPSQFPPLRPRFDPVGPLPGPNPILPGRGGPNDRFPFRPSRGRPTDGRLSFM", "values": [
      {"measurement": "binding", "setting": "SAD (human)", "result": "binds"},
      {"measurement": "binding", "setting": "SIP-L (human) [9]", "result": "binds"}
    ]},
    {"binder": "SAD (protein) MSRRPCSCALRPPRCSCSASPSAVTAAGRPRPSDSCKEESSTLSVKMKCDFNCNHVHSGLKLVKPDDIGRLVSYTPAYLEGSCKDCIKDYERLSCIGSPIVSPRIVKLETESKRLHNKENQHVQQTLNSTNEIEALETSRLYEDSGYSSFSLQSGLSEHEEGTLLEENFGDSLQSCLLQIQSPDQYPNKNLLPVLHFEKVVCSTLKKNAKRNPKVDREMLKEIIARGNFRLQNIIGRKMGLECVDILSELFRRGLRHVLATILAQLSDMDLINVSKVSTTWKKILEDDKGAFQLYSKAIQRVTENNNKFSPHASTREYVMFRTPLASVQKSAAQTSLKKDAQTKLSNQGDQKGSTYSRHNEFSEVAKTLKKNESLKACIRCNSPAKYDCYLQRATCKREGCGFDYCTKCLCNYHTTKDCSDGKLLKASCKIGPLPGTKKSKKNLRRL", "values": [
      {"measurement": "binding", "setting": "Skp1 (human)", "result": "binds"},
      {"measurement": "binding", "setting": "SAF-1 (human)", "result": "binds"}
    ]},
    {"binder": "Siah-1 (22-298) (protein) ATALPTGTSKCPPSQRVPALTGTTASNNDLASLFECPVCFDYVLPPILQCQSGHLVCSNCRPKLTCCPTCRGPLGSIRNLAMEKVANSVLFPCKYASSGCEITLPHTEKADHEELCEFRPYSCPCPGASCKWQGSLDAVMPHLMHQHKSITTLQGEDIVFLATDINLPGAVDWVMMQSCFGFHFMLVLEKQEKYDGHQQFFAIVQLIGTRKQAENFAYRLELNGHRRRLTWEATPRSIHEGIATAIMNSDCLVFDTSIAQLFAENGNLGINVTISMC", "values": [
      {"measurement": "binding", "setting": "Siah-1 (human) [10]", "result": "binds"}
    ]}
  ]
}
